The text below walks through data of patent publication US20090123907A1 (priority 2004, published 2009).

The subject of the data set is plasma proteins. Nature of the data set: Protein resistance to glass beads. The settings on record: 0.4% sodium citrate, 2% lysine citrate. From the text:
The above experiment was repeated using glass beads as a denaturing agent. Generally, contact of blood plasma with glass surfaces results in activation or denaturation. […].

As for `O=C([O-])CC(O)(CC(=O)[O-])C(=O)[O-].[Na+].[Na+].[Na+]` [Na Citrate, sodium citrate, reference compound], the “appearance of the tubes following glass bead treatment” value is “slightly cloudy”.

Regarding `NCCCC[C@H](N)C(=O)O.O=C(O)CC(O)(CC(=O)O)C(=O)O` [Lysine Citrate, lysine citrate], the “appearance of the tubes following glass bead treatment” value was “unchanged”.
